This assay concerns L1210 leukemia ip in BDF1 mice, survival T/C. As to the kind of experiment: NCI In Vivo Anticancer Drug Screen. Data for tumor model L1210 Leukemia (intraperitoneal) in B6D2F1 (BDF1) mice. To be noted: T/C endpoint: mean survival time, higher T/C = longer survival.
Setting [1] is: dose: 200.0 mg/kg/injection, schedule: Q01DX001 (ip), vehicle: Klucel (hydroxypropylcellulose) (HPC).
Setting [2] is: dose: 400.0 mg/kg/injection, schedule: Q01DX001 (ip), vehicle: Klucel (hydroxypropylcellulose) (HPC).
[3] abbreviates: dose: 200.0 mg/kg/injection, schedule: Q04DX003 (ip), vehicle: other.
Where [4] appears, read: dose: 400.0 mg/kg/injection, schedule: Q04DX003 (ip), vehicle: other.
[5] abbreviates: dose: 400.0 mg/kg/injection, schedule: Q01DX001 (ip), vehicle: carboxymethylcellulose (CMC).
Setting [6] is: dose: 100.0 mg/kg/injection, schedule: Q04DX002 (ip), vehicle: Klucel (hydroxypropylcellulose) (HPC).
Where [7] appears, read: dose: 400.0 mg/kg/injection, schedule: Q04DX003 (ip), vehicle: saline with Tween-80.
[8] abbreviates: dose: 400.0 mg/kg/injection, schedule: Q01DX009 (ip), vehicle: saline.
Setting [9] is: dose: 400.0 mg/kg/injection, schedule: Q01DX009 (ip), vehicle: saline with Tween-80.

In PubChem BioAssay AID248 (DTP/NCI, 2004) one finds survivor count and T/C data, which are given here for 31 compounds.

The list does not hold the whole screen: it is rich in T/C values a quarter to a half above the control, in often repeated tests (any T/C) and in doses without a T/C. Other doses and runs of a compound stand elsewhere. T/C: endpoint of the treated group in % of that of the vehicle group. Some entries give survivors of the animals treated and no T/C: the source holds a T/C of zero for them, seemingly a mark for toxic or unscored doses. Some survivor counts are full or nearly so, which does not show that the dose was tolerated: survival well below the control is almost never listed, so the zero probably covers shortened survival too. Counts of survivors are from the toxicity check (mostly the fifth day) where no day follows; animals may have died later. Schedule codes are those of the source, read here as Q, the interval in days (D) or hours (H), X, the number of doses. Some schedules carry Z or #; the key to these is not given. Where survival is the endpoint, this PubChem deposit counts one and a half times the control or more as active, and values a quarter to a half above the control carry no call in these data; other NCI protocols may use other cut-offs.

In the case of `CCn1/c(=N\N=O)sc2ccccc21`, the survivor count was 1 of 6 under setting [1] and 1 of 6 under setting [2].
Regarding `CCCCNc1nnnn1CCCC`, the survivor count (dose: 400.0 mg/kg/injection, schedule: Q04DX003 (ip), vehicle: acetone) is 2 of 6.
As to `NCCCCCCN` (tested in a mixture with another compound), the survivor count is 1 of 6 (dose: 12.0 mg/kg/injection, schedule: Q01DX009 (ip), vehicle: acid diluted with saline); 0 of 6 (dose: 100.0 mg/kg/injection, schedule: Q04DX003 (ip), vehicle: acid diluted with saline); 0 of 6 (dose: 200.0 mg/kg/injection, schedule: Q04DX003 (ip), vehicle: acid diluted with saline); 0 of 6 (dose: 400.0 mg/kg/injection, schedule: Q04DX003 (ip), vehicle: acid diluted with saline).
Turning to `CCC/C=[CH]/[Hg][Cl]`, the survivor count by setting is: (dose: 100.0 mg/kg/injection, schedule: Q04DX003 (ip), vehicle: other) 0 of 6; under setting [3], 0 of 6; under setting [4], 0 of 6.
On to `CCC(C)C(C)CO` (centres undefined), for which the survivor count (dose: 400.0 mg/kg/injection, schedule: Q01DX001 (ip), vehicle: saline) is 0 of 4.
For the compound `N=c1ccccn1CC(O)COc1ccccc1` (centres undefined), the survivor count is, setting by setting: (dose: 200.0 mg/kg/injection, schedule: Q01DX001 (ip), vehicle: carboxymethylcellulose (CMC)) 0 of 4; under setting [5], 0 of 4.
On to `CCCCC[P+](c1ccccc1)(c1ccccc1)c1ccccc1`, for which the survivor count is on record as 0 of 3 under setting [6]; 0 of 3 (dose: 200.0 mg/kg/injection, schedule: Q04DX002 (ip), vehicle: Klucel (hydroxypropylcellulose) (HPC)); 0 of 3 (dose: 400.0 mg/kg/injection, schedule: Q04DX002 (ip), vehicle: Klucel (hydroxypropylcellulose) (HPC)).
As to `Cc1cc2[nH]c(=O)[nH]c2cc1C`, the survivor count under setting [7] is given as 2 of 6.
As for `O=S(=O)(Cl)c1ccccc1Cl`, the survivor count was 2 of 6 (dose: 100.0 mg/kg/injection, schedule: Q01DX001 (ip), vehicle: Klucel (hydroxypropylcellulose) (HPC)) and 0 of 6 under setting [1].
Take `O=C1OC(=O)c2cscc21`: the survivor count under setting [7] is listed as 0 of 3.
`CC(C)C(CCN1CCCCC1)(CN=C(N)N)c1cccc2ccccc12` (centres undefined): the survivor count is, setting by setting: (dose: 100.0 mg/kg/injection, schedule: Q01DX009 (ip), vehicle: saline) 0 of 6; (dose: 200.0 mg/kg/injection, schedule: Q01DX009 (ip), vehicle: saline) 0 of 6; under setting [8], 0 of 6.
For the compound `N=C(N)N/N=C(/c1ccccc1)c1ccc(Oc2ccc(/C(=N/NC(=N)N)c3ccccc3)cc2)cc1`, the survivor count (dose: 120.0 mg/kg/injection, schedule: Q01DX Z (oral), vehicle: methylcellulose (MC)) is reported as 6 of 6.
As for `S=C(C#Cc1ccccc1)Nc1ccccc1`, for the setting “dose: 400.0 mg/kg/injection, schedule: Q04DX002 (ip), vehicle: saline with Tween-80”, the survivor count is 0 of 3.
Take `COc1ccc(COC2C(O)C(CO)OC2n2ccc(N)nc2=O)cc1` (centres undefined): the survivor count (dose: 200.0 mg/kg/injection, schedule: Q01DX005 (ip), vehicle: saline) was 1 of 6.
Regarding `COC(=O)C(Br)C(C)OC` (centres undefined), the survivor count under setting [8] is reported as 6 of 6.
On to `CCOC(=O)C(C)C(O)c1ccc(OC)cc1` (centres undefined), for which, where the note is “dose: 50.0 mg/kg/injection, schedule: Q01DX009 (ip), vehicle: saline with Tween-80”, the survivor count is 3 of 3.
In the case of `OCC1(c2ccccc2)OC1(c1ccccc1)c1ccccc1` (centres undefined), the survivor count (dose: 50.0 mg/kg/injection, schedule: Q04DX002 (ip), vehicle: Klucel (hydroxypropylcellulose) (HPC)) is on record as 1 of 3 and the survivor count under setting [6] was 0 of 3.
With `OCCC1CNCCN1.[Cl][Pd]([Cl])([Cl])[Cl]` (centres undefined), the survivor count (dose: 400.0 mg/kg/injection, schedule: Q01DX001 (ip), vehicle: DMSO) was 1 of 3.
Turning to `Cc1cc(C(=O)NNC(C)Cc2ccccc2)no1` (centres undefined), the survivor count (dose: 75.0 mg/kg/injection, schedule: Q01DX009 (ip), vehicle: Klucel (hydroxypropylcellulose) (HPC)) was 5 of 6.
With `C/C=C/CC(C/C=C/C)C1CC[N-]CC1.C/C=C/CC(C/C=C/C)C1CC[N-]CC1.[Cl][Pt+2]([Cl])([Cl])[Cl]`, the survivor count is 5 of 6 (dose: 25.0 mg/kg/injection, schedule: Q01DX009 (ip), vehicle: other) and 1 of 6 (dose: 50.0 mg/kg/injection, schedule: Q01DX009 (ip), vehicle: other).
As to `BrCc1cccc2cccc(CBr)c12`, the survivor count under setting [2] is reported as 3 of 6.
`O=C(Nc1cccc(C(F)(F)F)c1)Nc1cccc2c1C(=O)c1ccccc1C2=O`: under setting [9], the survivor count is given as 6 of 6.
Turning to `O=C(CSc1cc(Cl)ccc1Cl)Nc1cccc(Br)c1`, the survivor count under setting [3] is listed as 5 of 6.
In the case of `CC(=O)c1ccc(NC(=O)N(CCCl)N=O)cc1`, the T/C is 125 % of control (dose: 4.0 mg/kg/injection, schedule: Q01DX001 (ip), vehicle: carboxymethylcellulose (CMC)); 135 % of control (dose: 6.0 mg/kg/injection, schedule: Q01DX001 (ip), vehicle: carboxymethylcellulose (CMC)); 143 % of control (dose: 8.0 mg/kg/injection, schedule: Q01DX001 (ip), vehicle: carboxymethylcellulose (CMC)); 125 % of control (dose: 9.0 mg/kg/injection, schedule: Q01DX001 (ip), vehicle: carboxymethylcellulose (CMC)); 141 % of control (dose: 12.0 mg/kg/injection, schedule: Q01DX001 (ip), vehicle: carboxymethylcellulose (CMC)); 143 % of control (dose: 37.5 mg/kg/injection, schedule: Q01DX001 (ip), vehicle: carboxymethylcellulose (CMC)). The T/C (dose: 50.0 mg/kg/injection, schedule: Q01DX001 (ip), vehicle: carboxymethylcellulose (CMC)) was 147 % of control. The survivor count (dose: 350.0 mg/kg/injection, schedule: Q01DX001 (ip), vehicle: carboxymethylcellulose (CMC)) is 4 of 6; the survivor count under setting [5] is given as 4 of 6; the survivor count (dose: 500.0 mg/kg/injection, schedule: Q01DX001 (ip), vehicle: carboxymethylcellulose (CMC)) is on record as 2 of 6.
Regarding `COc1cc(C(C)=O)ccc1OS(C)(=O)=O`, the survivor count reads like this: (dose: 100.0 mg/kg/injection, schedule: Q04DX003 (ip), vehicle: Klucel (hydroxypropylcellulose) (HPC)) 6 of 6; (dose: 200.0 mg/kg/injection, schedule: Q04DX003 (ip), vehicle: Klucel (hydroxypropylcellulose) (HPC)) 0 of 6; (dose: 400.0 mg/kg/injection, schedule: Q04DX003 (ip), vehicle: Klucel (hydroxypropylcellulose) (HPC)) 0 of 6.
On to `O=[N+]([O-])c1cccc(S(=O)(=O)O)c1.[Fe]`, for which the survivor count (dose: 400.0 mg/kg/injection, schedule: Q04DX003 (ip), vehicle: saline) is listed as 0 of 6.
Turning to `CC(=O)N1CCc2cc(N)ccc21`, the survivor count (dose: 100.0 mg/kg/injection, schedule: Q01DX009 (ip), vehicle: saline with Tween-80) is 2 of 6 and the survivor count under setting [9] is on record as 2 of 6.
Consider `BrC(Br)c1ccccc1C(Br)Br`, for which, under “dose: 400.0 mg/kg/injection, schedule: Q01DX009 (ip), vehicle: gum acacia”, the T/C is 132 % of control.
For the compound `CCCCCC(/C=N/N=C(N)N)=N\N=C(N)N`, the survivor count (dose: 120.0 mg/kg/injection, schedule: Q01DX Z (ip), vehicle: carboxymethylcellulose (CMC)) is given as 0 of 6.
Take `O=C(CNCc1ccccc1)Oc1c(Cl)c(Cl)c(Cl)c(Cl)c1Cl`: under setting [4], the survivor count was 0 of 6.
As for `Clc1ccc(C[P+](c2ccccc2)(c2ccccc2)c2ccccc2)cc1Cl`, the survivor count reads like this: (dose: 5.0 mg/kg/injection, schedule: Q04DX003 (ip), vehicle: acetone) 6 of 6; (dose: 10.0 mg/kg/injection, schedule: Q04DX003 (ip), vehicle: acetone) 6 of 6; (dose: 20.0 mg/kg/injection, schedule: Q01DX001 (ip), vehicle: acetone) 0 of 6.
